The experiment deals with T1, Homeodomain-interacting protein kinase (Hipk) fused N-terminally to the N-terminal fragment of YFP (Drosophila) (UniProt Q9W0Q1).
T1 sequence: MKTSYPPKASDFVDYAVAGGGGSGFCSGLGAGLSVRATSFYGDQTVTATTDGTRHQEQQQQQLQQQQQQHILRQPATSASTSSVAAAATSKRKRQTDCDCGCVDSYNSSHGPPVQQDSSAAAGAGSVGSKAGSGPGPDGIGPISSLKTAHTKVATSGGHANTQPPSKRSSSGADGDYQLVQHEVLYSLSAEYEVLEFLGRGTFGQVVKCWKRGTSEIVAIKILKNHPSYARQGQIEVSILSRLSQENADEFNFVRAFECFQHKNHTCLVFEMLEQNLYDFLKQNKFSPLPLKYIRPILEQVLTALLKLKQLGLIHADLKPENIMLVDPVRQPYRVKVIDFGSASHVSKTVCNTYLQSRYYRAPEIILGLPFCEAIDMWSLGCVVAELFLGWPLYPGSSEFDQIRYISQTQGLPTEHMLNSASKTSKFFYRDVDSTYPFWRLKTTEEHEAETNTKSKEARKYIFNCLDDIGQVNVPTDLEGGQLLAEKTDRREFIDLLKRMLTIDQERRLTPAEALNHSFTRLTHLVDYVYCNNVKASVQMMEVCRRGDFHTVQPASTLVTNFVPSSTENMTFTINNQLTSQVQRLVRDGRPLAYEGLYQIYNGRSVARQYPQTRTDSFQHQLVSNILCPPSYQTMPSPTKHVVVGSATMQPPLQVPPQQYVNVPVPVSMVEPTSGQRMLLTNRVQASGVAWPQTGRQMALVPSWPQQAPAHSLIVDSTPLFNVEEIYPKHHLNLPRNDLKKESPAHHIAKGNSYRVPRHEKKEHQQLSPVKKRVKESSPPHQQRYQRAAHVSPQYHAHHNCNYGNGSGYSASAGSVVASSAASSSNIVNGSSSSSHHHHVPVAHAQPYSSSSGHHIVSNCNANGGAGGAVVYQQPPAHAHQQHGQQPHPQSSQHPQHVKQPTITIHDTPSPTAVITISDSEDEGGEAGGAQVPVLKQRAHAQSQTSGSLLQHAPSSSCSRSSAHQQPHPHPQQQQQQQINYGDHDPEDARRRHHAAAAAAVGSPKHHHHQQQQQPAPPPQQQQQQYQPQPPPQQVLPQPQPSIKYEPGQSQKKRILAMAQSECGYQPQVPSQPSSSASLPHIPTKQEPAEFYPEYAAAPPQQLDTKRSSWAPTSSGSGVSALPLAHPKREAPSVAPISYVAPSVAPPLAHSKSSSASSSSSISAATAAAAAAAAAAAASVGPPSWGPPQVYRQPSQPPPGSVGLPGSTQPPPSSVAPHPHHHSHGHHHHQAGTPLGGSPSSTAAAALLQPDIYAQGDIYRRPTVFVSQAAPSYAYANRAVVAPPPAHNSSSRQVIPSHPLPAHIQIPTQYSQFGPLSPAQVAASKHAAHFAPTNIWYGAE
Briefly: split reporter; BiFC: NYFP and CYFP fusions coexpressed from UAS constructs with MS1096-Gal4 in third larval instar wing imaginal discs; crosses at 25 °C; anti-GFP immunostaining to enhance the YFP signal.

Amino acid sequences for entries named in this document (tags omitted).
UniProt P16371: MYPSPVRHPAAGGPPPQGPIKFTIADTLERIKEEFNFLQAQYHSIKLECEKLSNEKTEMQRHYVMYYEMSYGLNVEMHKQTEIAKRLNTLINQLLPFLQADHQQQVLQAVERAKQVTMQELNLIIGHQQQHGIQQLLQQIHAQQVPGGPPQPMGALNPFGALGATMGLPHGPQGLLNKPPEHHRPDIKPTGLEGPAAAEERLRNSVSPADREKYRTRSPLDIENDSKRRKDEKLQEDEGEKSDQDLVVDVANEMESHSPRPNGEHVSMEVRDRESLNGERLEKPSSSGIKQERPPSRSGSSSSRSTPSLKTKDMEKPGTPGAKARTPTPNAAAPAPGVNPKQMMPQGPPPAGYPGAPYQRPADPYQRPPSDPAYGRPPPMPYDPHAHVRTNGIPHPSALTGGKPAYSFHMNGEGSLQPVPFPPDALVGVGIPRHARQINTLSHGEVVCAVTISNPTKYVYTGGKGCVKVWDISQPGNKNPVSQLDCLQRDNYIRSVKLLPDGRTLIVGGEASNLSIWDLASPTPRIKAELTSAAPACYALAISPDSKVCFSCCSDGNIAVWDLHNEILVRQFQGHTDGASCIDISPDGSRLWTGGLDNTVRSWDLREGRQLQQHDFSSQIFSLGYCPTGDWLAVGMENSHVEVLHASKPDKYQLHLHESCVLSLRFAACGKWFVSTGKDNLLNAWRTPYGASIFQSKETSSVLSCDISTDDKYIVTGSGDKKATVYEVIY

Results are given in words; binding and its absence hold for the method and conditions named. In cells and extracts the contact can be indirect. Some binding calls cover weakened binding; strength is not graded here. Where a sequence is shown, tags or fusion partners need not be part of it.

With “Groucho (Gro) fused to the C-terminal fragment of YFP (from UniProt P16371 1-730)”, the binding entry was “binds”.

These data come from PMC6515119.
